PubChem BioAssay AID1259308 | NCATS, 2017
Shown is a random part of about 59,000 reagents. In the full data, about 1,510 (2.6%) were called active. 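Calls use total luciferase alone and ignore viability, so some active siRNAs may act by altering cell number.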 A number with no mark means an inactive call. Further read-outs or replicates are left out here.

- Aim: 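Genes whose loss raises luciferase production in HEK293 cells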 (primary screen)
- Cell system: human HEK293 embryonic kidney cells stably expressing firefly luciferase (HEK-CMV-Luc2-Hygro)
- Reagent: single siRNA against human genes, 0.8 pmol siRNA per well
- Time to read-out: 72 h
- Measurement: 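Reporter luminescence and viable-cell signal on separate replicate plates, given as percent of non-targeting control and median/MAD z-scores, plus per-cell luciferase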
- Reading the numbers: total luciferase, z-score and total luciferase, % of control: higher = more reporter protein produced
- Call rule: 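Active when the median/MAD z-score for overall luciferase is greater than 3; a gene was taken forward for validation with new siRNAs if at least two of its three siRNAs passed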
- Meaning of the calls: active = raised luciferase; inactive = no rise

How did the screen score TMIE (GeneID 259236) [SID160762597]?
total luciferase, z-score: -1.32; total luciferase, % of control: 55.5

With TMIE (GeneID 259236) [SID160762598], what was measured?
total luciferase, z-score: -1.19; total luciferase, % of control: 58.3

How did the screen score TMIE (GeneID 259236) [SID160762599]?
total luciferase, z-score: -0.234; total luciferase, % of control: 77.2

For FENDRR (GeneID 400550) [SID160732951], how do the results read?
total luciferase, z-score: 0.26; total luciferase, % of control: 87.1

For FENDRR (GeneID 400550) [SID160733312], how do the results read?
total luciferase, z-score: -0.616; total luciferase, % of control: 69.6

What is on record for FENDRR (GeneID 400550) [SID160763080]?
total luciferase, z-score: 0.45; total luciferase, % of control: 90.8

For FENDRR (GeneID 400550) [SID160763082], what does the deposit list?
total luciferase, z-score: -0.678; total luciferase, % of control: 68.4

With FENDRR (GeneID 400550) [SID160766982], what does the deposit list?
total luciferase, z-score: 1.31; total luciferase, % of control: 108

For FENDRR (GeneID 400550) [SID160766983], what was measured?
total luciferase, z-score: -1.24; total luciferase, % of control: 57.3

For TRIML2 (GeneID 205860) [SID160761199], what was measured?
total luciferase, z-score: 4.79 (active); total luciferase, % of control: 177

What did the screen give for TRIML2 (GeneID 205860) [SID160761200]?
total luciferase, z-score: -0.318; total luciferase, % of control: 75.6

For TRIML2 (GeneID 205860) [SID160761202], how do the results read?
total luciferase, z-score: -1.23; total luciferase, % of control: 57.5

How did the screen score ARRB1 (GeneID 408) [SID160720253]?
total luciferase, z-score: -0.725; total luciferase, % of control: 67.5

For ARRB1 (GeneID 408) [SID160720263], how do the results read?
total luciferase, z-score: -1.06; total luciferase, % of control: 60.7

Which result is listed for ARRB1 (GeneID 408) [SID160720274]?
total luciferase, z-score: 2.12; total luciferase, % of control: 124

Which result is listed for WWP1 (GeneID 11059) [SID160729843]?
total luciferase, z-score: -0.914; total luciferase, % of control: 63.7

For WWP1 (GeneID 11059) [SID160729844], what was measured?
total luciferase, z-score: 4.2 (active); total luciferase, % of control: 165

For WWP1 (GeneID 11059) [SID160729846], what does the deposit list?
total luciferase, z-score: -0.218; total luciferase, % of control: 77.5

Called active, among the entries above:
TRIML2 (GeneID 205860) [SID160761199]: total luciferase, z-score = 4.79 (active); total luciferase, % of control = 177
WWP1 (GeneID 11059) [SID160729844]: total luciferase, z-score = 4.2 (active); total luciferase, % of control = 165

Next results:
What did the screen give for RPL31P45 (GeneID 729308) [SID160726996]?
total luciferase, z-score: 1.14; total luciferase, % of control: 105

What did the screen give for RPL31P45 (GeneID 729308) [SID160772648]?
total luciferase, z-score: -0.627; total luciferase, % of control: 69.4

Which result is listed for RPL31P45 (GeneID 729308) [SID160772649]?
total luciferase, z-score: 0.12; total luciferase, % of control: 84.3

With OR52E4 (GeneID 390081) [SID160766377], what was measured?
total luciferase, z-score: 1.56; total luciferase, % of control: 113

With OR52E4 (GeneID 390081) [SID160766378], what was measured?
total luciferase, z-score: 0.0952; total luciferase, % of control: 83.8

Which result is listed for OR52E4 (GeneID 390081) [SID160766379]?
total luciferase, z-score: 0.647; total luciferase, % of control: 94.8

Which result is listed for FMOD (GeneID 2331) [SID160730839]?
total luciferase, z-score: 0.247; total luciferase, % of control: 86.8

For FMOD (GeneID 2331) [SID160766807], what was measured?
total luciferase, z-score: 1.21; total luciferase, % of control: 106

How did the screen score FMOD (GeneID 2331) [SID160766826]?
total luciferase, z-score: 1.46; total luciferase, % of control: 111

For GABBR1 (GeneID 2550) [SID160768266], what was measured?
total luciferase, z-score: 0.733; total luciferase, % of control: 96.5

Which result is listed for GABBR1 (GeneID 2550) [SID160768276]?
total luciferase, z-score: -2.07; total luciferase, % of control: 40.8

For GABBR1 (GeneID 2550) [SID160768286], what does the deposit list?
total luciferase, z-score: -0.22; total luciferase, % of control: 77.5

Which result is listed for AMN1 (GeneID 196394) [SID160760606]?
total luciferase, z-score: -0.63; total luciferase, % of control: 69.4

With AMN1 (GeneID 196394) [SID160760607], how do the results read?
total luciferase, z-score: -0.762; total luciferase, % of control: 66.7

For AMN1 (GeneID 196394) [SID160760608], what does the deposit list?
total luciferase, z-score: -0.428; total luciferase, % of control: 73.4
